Measured values reported in the supplement of paper PMC5949888.
Most values lie at the floor of the assay. Slopes are relative: functional sequences can read slightly below zero.

system: Saccharomyces cerevisiae PS128 hsf1 delta, HSF1(1-493) fusion; experiment: growth estimate (transactivation domain function in HSF1 fusion, heat-shock survival) (a.u. (slope of normalised read count over time)); higher = stronger growth at 37°C, i.e. more transactivation activity; conditions: library: random library
Description: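 Random 60-nt DNA library encoding peptides of up to 20 aa, fused to the C-terminus of yeast HSF1 residues 1-493 (C-terminal TAD deleted) and expressed from the native HSF1 promoter on a CEN plasmid in hsf1-deleted S. cerevisiae PS128. Cells were selected at 37°C on -trp 5-FOA plates for 0, 2, 4, 6 and 8 days and amplicons were sequenced. Growth estimate is the slope of a robust linear fit of total-sum-normalised read counts (normalised to the first time point) over time, using at least 2 replicates. Sequences are classed functional (TAD activity) above a threshold of -0.13, set from stop-codon control sequences.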

Substance | growth estimate
ADLGILSGQSSDTWTVSIDT | < -0.25
SPQGRLSRGAESVSFPGVRR | < -0.25
PIAVQGRGLQRHSRGGTLQV | < -0.25
ASLCR | < -0.25
CPPPLSPKHSIESGM | < -0.25
GSKRARIGLSRAL | < -0.25
YCSARSG | < -0.25
PLLGQKQSVLPSPATTMGWG | < -0.25
SNCGGGLLLVRRR | < -0.25
VMNH | < -0.25
CLVPIDVGEPLA | 0.0484
LPTKQSSAGARGGD | < -0.25
RLSLWYSSKRRYPAHRAAAD | < -0.25
QHDRVRCPYKGDMQSPPRTR | < -0.25
PKTSEEEIGSLFTWLFSAEH | 0.289
NVGRECVVLY | < -0.25
SVSFWLRDLGPGTAGVDSDC | -0.203
DTAGSRVC | < -0.25
RAYRRVA | < -0.25
ILVRSAPSAIGLRMASLVGV | < -0.25
GRVIWSLALVIRAVGITKPT | < -0.25
FRSQSFPQRILQPHVARVRH | < -0.25
CTPAWERCKGDGRYAVHYCE | < -0.25
QKDKSSSCLCFTIRPGFGEA | < -0.25
WGRAMTYVE | < -0.25
TKRETQANGMFQSWETEART | < -0.25
CIRAERPVITRTGCMHSSDA | < -0.25

Substance | growth estimate
KPIFGVPPPARRAYVRGYRL | < -0.25
VGERGNGVPALRPSLFI | < -0.25
CYYRPLRGSNNISYIE | < -0.25
HRKRS | < -0.25
VLGSEVHTGV | < -0.25
FGKAFMRRSYGRG | < -0.25
TDYTEPCRIVLIAPVQIPDL | < -0.25
PLLASLQRASLGCQFRTVRY | < -0.25
LSVPNAALSGGWFGALPPPC | < -0.25
SWSRAPHQR | -0.246
RILLWCAGPGGL | < -0.25
MALVPNYSVVTLLTGVTAV | < -0.25
AAGRRRKRMTWTRTQLDGGI | < -0.25
MLIACRTRLSATN | < -0.25
RILCVHPSSIMMSNCVRRRH | < -0.25
TQTIDLGAL | < -0.25
MHRIDNETLLVIHTLSRILH | < -0.25
FRMLACERPLTRSVKTNGL | < -0.25
VCGPSSSGMFQGTYVTLD | < -0.25
QLRGLVKQDTSEGKFAEPDA | < -0.25
KNRGILVGD | < -0.25
CDRGGPSGRLSNTSAVDQVL | < -0.25
YYGEVV | < -0.25
VKSTSFFLIDSLRFLGTLGI | < -0.25
PDGRHG | < -0.25
LSITGE | < -0.25
NNASRGL | < -0.25

Substance | growth estimate
TALIIESPSSLDDVLGSSGS | < -0.25
RVTESRAGH | < -0.25
RWVREFLVRPC | < -0.25
RVTRW | < -0.25
VPYSAVPSMETTAPGLAGQQ | < -0.25
RMDIIPYYALERIPLARGAG | < -0.25
VSIYPQKGPYLRPHREDDKR | < -0.25
LYDGSPRCPNGTHPPRSEGC | < -0.25
TSYRADM | < -0.25
NLRAV | < -0.25
FRPRPAP | < -0.25
VVA | < -0.25
RGTLKVNARVSVPSIQISNG | -0.243
LDTRPWGPDPGLDSNSFALG | < -0.25
DMFSSRRLSYYERRPKRRDV | 0.246
VCG | < -0.25
YCVHGISPAINRQSQWTRHV | -0.243
LVPLLLWLPTMLGGNSNGPV | < -0.25
DRAARRLPTRAYCGNP | < -0.25
SCVG | < -0.25
KYIIMSQLAKYEK | < -0.25
PTMLRPPVSRRVHVGVSAEG | < -0.25
LQDWVPGRTIRG | < -0.25
VHEPYEEK | < -0.25
EIIGFPRRNSRLFAKLANF | < -0.25
RVKSWISFHNEIGVGPLAYF | < -0.25

Random excerpt: 4 entries already listed
Substance | growth estimate
PLLGQKQSVLPSPATTMGWG | < -0.25
YYGEVV | < -0.25
RVTESRAGH | < -0.25
TALIIESPSSLDDVLGSSGS | < -0.25
